Test results as given in US12564576B2, “Therapeutic agent for vascular disorder” (NATIONAL UNIVERSITY CORPORATION KUMAMOTO UNIVERSITY, priority 2020, dated 2026).
At least one compound was matched to its structure with a doubt left.

Test system: synthesis and secretion of a type IV collagen protein in vascular endothelial cells derived from iPS cells
Test: Amount of type IV collagen protein released into the medium by iPS-derived vascular endothelial cells (Western blotting)
Assay type: cell-based, human
Conditions: 1 μmol/L sirolimus with 0.25% DMSO, serum-free medium, 3 days culture, versus vehicle control medium; FIG. 2
Protocol: As the cells, iPS cells derived from healthy adults and patients with scleroderma established at Kumamoto University were used (Zhongzhi Wang, et al., JDS 2016 November; 84(2): 186-196.). Scleroderma is known to cause Raynaud's syndrome, which is one of peripheral vascular disorders, as a symptom of scleroderma, and therefore was employed as a vascular disorder model cell.
Differentiation induction into vascular endothelial cells was performed by culturing iPS cells derived from healthy adults and patients with scleroderma under the conditions described in Table 1.
As the obtained cells, only cells positive for VE-cadherin (CD144) and PECAM-1 (CD31), which are vascular endothelial cell markers, were sorted using flow cytometry. From the morphology of the sorted cells and the expression of the marker genes, it was confirmed that the sorted cells were vascular endothelial cells. […]
In the above (1), using the cell supernatant cultured in the serum-free medium, the amount of a type IV collagen protein released into the medium was quantified by the following method.
First, proteins released into the medium were concentrated. […] After removal of ethanol, the precipitate was dried and dissolved in an RIPA buffer, and each sample was adjusted to have a protein concentration of 1 mg/ml using a protein quantification reagent (Bradford Protein Assay, manufactured by Bio-Rad Laboratories, Inc.). […]

CO[C@H]1C[C@@H]2CC[C@@H](C)[C@@](O)(O2)C(=O)C(=O)N2CCCC[C@H]2C(=O)O[C@H]([C@H](C)C[C@@H]2CC[C@@H](O)[C@H](OC)C2)CC(=O)[C@H](C)/C=C(\C)[C@@H](O)[C@@H](OC)C(=O)[C@H](C)C[C@H](C)/C=C/C=C/C=C/1C [sirolimus]
amount of a type IV collagen protein in the medium: significantly smaller than that in the vehicle control medium
